Data as given in PubChem BioAssay AID504834 (National Center for Advancing Translational Sciences (NCATS), 2011).
Several values for one entry are separate records, joined by “and”; a condition that tells them apart may be missing. Equal values may be shown once. Screen size: about 320,000 compounds; about 22,000 (6.9%) were called active. The shares of active, inactive and inconclusive entries below differ from those in the screen. Calls follow the shape of the dose curve; as a rule, active = well fitted inhibition curve with a large enough effect; inconclusive = small, poorly fitted or top-dose-only effect, or another doubt; inactive = no such curve, though single readings can be large or run the other way. Where the call is inconclusive, the potency comes from a doubtful curve fit. A structure can be active in one record and inactive in another.

Assay: Primary qHTS for delayed death inhibitors of the malarial parasite plastid, 96 hour incubation
Details: P. falciparum luciferase reporter growth; series mostly up to 28.7 µM; activity change, negative = inhibition: at the top concentration
How it was run: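 Readout is luminescence from an integrated firefly luciferase in P. falciparum. Red cells, 2% hematocrit and 0.05% parasitemia final, were cultured with compound through two parasite generations (96 hours) at 37 C, 5% CO2.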
% is scaled to controls: 0 for no effect and ±100 for the full control effect; potency is read from the fitted curve at half-maximal effect.

Row | Compound | Potency | activity change, negative = inhibition
1 | S=C(Nc1ccc(OCc2ccccc2)cc1)Nc1cccc(Cl)c1Cl | inconclusive: 10.4 µM [inhibitor, single point] | –
2 | Cc1ccc(N(CC(=O)Nc2ccc(Br)c(C)c2)S(=O)(=O)c2c(C)[nH]c(=O)[nH]c2=O)cc1 | inconclusive: 13.1 µM [inhibitor, partial curve] | –
3 | CCOc1ccc(CN(C)CC(=O)Nc2cccc3ccccc23)cc1OC | inconclusive: 9.28 µM [inhibitor, single point] | –
4 | Cn1c(=O)n(Cc2ccccc2)c(=O)c2c1nc1n2CCCN1Cc1ccccc1 | inconclusive: 18.5 µM [inhibitor, single point] | –
5 | Cc1ccc(S(=O)(=O)N(CC(=O)NC2CC2)c2ccc(C)c(Cl)c2)cc1 | inconclusive: 18.5 µM [inhibitor, single point] | –
6 | CC(C)CCn1c(S(=O)(=O)O)nc2ccccc21 | inconclusive: 0.0329 µM [inhibitor, full curve, poor fit] | –
7 | O=C1N(c2ccc(Cl)c(Cl)c2)CN(Cc2ccccc2)CN1n1cnnc1 | inconclusive: 13.1 µM [inhibitor, single point] | –
8 | CC1CC(C)CN(CCCNC(=O)C2CCCN(c3nnc(N4CCCC4=O)s3)C2)C1 (centres undefined) | inconclusive: 5.22 µM [inhibitor, partial curve, poor fit] | –
9 | COc1ccc(CN(C)CC(=O)Nc2cccc(S(=O)(=O)N(C)c3ccccc3)c2)c(OC)c1 | active: 14.7 µM | –
10 | CCOc1ccccc1NC(=O)CSc1cn[nH]n1 | inconclusive: 13.1 µM [inhibitor, partial curve, poor fit] | –
11 | COc1ccc(COC(=O)c2ccc3c(=O)n4c(nc3c2)CCC4)cc1F | inconclusive: 5.22 µM [inhibitor, partial curve, poor fit] | –
12 | O=C(C1CCCN(S(=O)(=O)c2cccc3cccnc23)C1)N1CCc2ccccc21 (centres undefined) | inconclusive: 0.0041 µM [inhibitor, full curve, poor fit] | –
13 | O=C1C2C(C(=O)N1/N=C/c1ccc(N3CCCCC3)o1)C1C=CC2C12CC2 (centres undefined) | inconclusive: 11.7 µM [inhibitor, partial curve, poor fit] | –
14 | CCC(C)(C)NC(=O)c1ccc(S(=O)(=O)N(C)c2ccccc2OC)cc1 | – | inactive: -8.2%
15 | Cc1cc(NC(=O)CN2CCCC(C)C2)no1 (centres undefined) | – | inactive: 19%
16 | CCc1cccc(C)c1NC(=O)c1cccnc1 | inconclusive: 18.5 µM [inhibitor, single point] | –
17 | C=CCNc1nc(C(F)(F)F)nc2c1nnn2Cc1ccccc1Cl | inconclusive: 13.1 µM [inhibitor, partial curve, poor fit] | –
18 | CCCCCCSc1ccc([C@H]2N[C@@](CC(C)C)(C(=O)OC)[C@H]3C(=O)N(C)C(=O)[C@@H]23)cc1 | inconclusive: 11.7 µM [inhibitor, single point] | –
19 | COc1ccc(N(CC(=O)NCCc2cccc(C)c2)S(=O)(=O)c2c(C)noc2C)cc1 | active: 2.62 µM | –
20 | COc1ccc(-n2c(C)cc(C(=O)CN3CCCCC3)c2C)cc1 | inconclusive: 18.5 µM [inhibitor, single point] | –
21 | Nc1ncccc1OCc1cccc(C(F)(F)F)c1 | inconclusive: 18.5 µM [inhibitor, single point] | –
22 | CCOC(=O)C1CCCN(S(=O)(=O)c2cc(OCC(=O)NC3CCCCC3)c(C)cc2Cl)C1 (centres undefined) | active: 0.465 µM | –
23 | Cc1ccc(C(=O)NNC(=O)c2ccccc2-n2cccc2)cc1 | inconclusive: 2.08 µM [inhibitor, partial curve, poor fit] | –

Row | Compound | Potency | activity change, negative = inhibition
24 | COc1cc(OC)cc(-c2c(-c3cccs3)c3cc(-c4ccc5c(c4)OCCO5)ccc3n2C)c1 | inconclusive: 6.57 µM [inhibitor, single point] | –
25 | CCc1ccc(CNc2ccc3c(c2)ncn3C)cc1 | inconclusive: 4.15 µM [inhibitor, single point] | –
26 | CNC(=O)CSc1nnc(-c2ccco2)n1-c1cc(C)ccc1C | active: 11.7 µM | –
27 | O=C(Nc1ccccc1)c1ccc2c(c1)OCCO2 | – | inactive: 34.5%
28 | COc1cccc(NC(=O)CN(C)C(=O)c2ccc(COc3ccccc3)o2)c1 | active: 14.7 µM | –
29 | N#C/C(=C(/O)c1ccc([N+](=O)[O-])o1)c1nc2ccccc2[nH]1 | – | inactive: 24.6%
30 | Cc1ccc(C(=O)c2cc([N+](=O)[O-])ccc2N2CCCCC2)c(C)c1 | active: 13.1 µM | –
31 | Cc1ccc(NC(=O)Nc2ccno2)cc1 | – | inactive: -2.7%
32 | Cc1ccc(NC(=O)CN(C)c2ccc(S(=O)(=O)N3CCCC3)cn2)cc1 | inconclusive: 18.5 µM [inhibitor, single point] | –
33 | COc1ccccc1N1CCN(C(=O)c2cc(C3CC3)on2)CC1 | – | inactive: -7.23%
34 | O=C(NC1CCCCCC1)C1c2ccccc2C(=O)N1CCCN1CCOCC1 (centres undefined) | active: 13.1 µM | –
35 | Cc1cc2ncc(-c3cccc(Cl)c3)cn2n1 | – | inactive: 128%
36 | Cc1ccccc1NC(=S)N1CCN(c2ccccc2)CC1 | inconclusive: 18.5 µM [inhibitor, single point] | –
37 | CCCCn1c(Nc2ccccc2)nc2ccccc21 | inconclusive: 11.7 µM [inhibitor, single point] | –
38 | CCC(C)[C@H](NC(=O)Nc1cccc(Br)c1)C(=O)OC (some centres undefined) | – | inactive: 41.6%
39 | C(=N\n1cnnc1)/c1cccc(OCCOc2ccccc2)c1 | – | inactive: 14.3%
40 | O=C(CSc1ccc2nnc(CCNC(=O)c3ccccc3)n2n1)Nc1ccccc1F | inconclusive: 18.5 µM [inhibitor, single point] | –
41 | C=CCNc1nc(C(=O)OCC(=O)c2ccc(F)cc2)cs1 | – | inactive: 39.6%
42 | O=C1CCC/C(=N\NC(=O)COc2ccc(Cl)cc2)C1 | inconclusive: 9.28 µM [inhibitor, single point] | –
43 | CCOC(=O)c1[nH]c(C)c(C(=O)OCc2c(C)noc2C)c1C | inconclusive: 18.5 µM [inhibitor, single point] | –
44 | COCn1c(C(O)c2ccccc2)cc2ccccc21 (centres undefined) | inconclusive: 10.4 µM [inhibitor, partial curve, poor fit] | –
45 | CCCC(C)NC(=S)Nc1cc(C)cc(C)c1 (centres undefined) | inconclusive: 1.65 µM [inhibitor, full curve, poor fit] | –
46 | CC(C)CN(C(=O)COC(=O)/C=C/c1ccccc1)C1CCS(=O)(=O)C1 (centres undefined) | inconclusive: 18.5 µM [inhibitor, single point] | –

Row | Compound | Potency | activity change, negative = inhibition
47 | Cc1cccc(OP(=O)(NCc2ccccc2)Oc2cccc(C)c2)c1 | inconclusive: 1.47 µM [inhibitor, full curve] | –
48 | Cc1ccc(C(=O)Nc2ccc(C(=O)OCc3cc(=O)n4ccsc4n3)cc2)cc1 | inconclusive: 0.0131 µM [inhibitor, full curve, poor fit] | –
49 | CCn1cc(CNC(=O)CCSc2nc(-c3ccco3)cc(C(F)(F)F)n2)cn1 | – | inactive: 0%
50 | Cc1nn(C)c(C)c1NC(=O)COc1ccc(Cl)cc1Br | inconclusive: 11.7 µM [inhibitor, single point] | –
51 | O=C(CCN1C(=O)/C(=C/c2ccc(Cl)cc2)SC1=S)Nc1cccnc1 | inconclusive: 9.28 µM [inhibitor, single point] | –
52 | Cc1ccc(N=Cc2cc(Cc3ccccc3Cl)cc([N+](=O)[O-])c2O)c(O)c1 | – | inactive: -20%
53 | Cc1[nH]c2ccccc2c1C(=O)CNc1nccs1 | inconclusive: 5.86 µM [inhibitor, partial curve, poor fit] | –
54 | O=S(=O)(c1cnc(Cl)c(Br)c1)N1CCN(c2ncccn2)CC1 | inconclusive: 0.0029 µM [inhibitor, full curve, poor fit] | –
55 | O=C(CC(=O)c1ccccc1O)c1cccc(F)c1 | inconclusive: 0.329 µM [inhibitor, full curve, poor fit] | –
56 | Cc1ccc(NC(=O)Cn2c(CCC(=O)O)ccc2-c2ccc(Cl)cc2)cc1 | inconclusive: 1.65 µM [inhibitor, partial curve] | –
57 | COC(=O)c1ccc(NC(=O)Cn2nc(C(=O)Nc3ccc(C)cc3)ccc2=O)cc1 | inconclusive: 18.5 µM [inhibitor, single point] | –
58 | Cc1ccsc1/C=C1\CCC(C2CCCC2)C1=O (centres undefined) | – | inactive: -25.6%
59 | COc1ccc(C(=O)CN(CCC(=O)O)S(=O)(=O)c2ccc([N+](=O)[O-])cc2)cc1 | – | inactive: 16.6%
60 | CSC1=NCCN1C(=O)c1cccs1 | active: 13.1 µM | –
61 | CC(C)NC(=O)CCn1nc(-c2ccc(Cl)cc2)c2ccccc2c1=O | inconclusive: 14.7 µM [inhibitor, single point] | –
62 | Cc1ccc(Nc2nc(N)nc(CN3CCN(C)CC3)n2)cc1C | inconclusive: 10.4 µM [inhibitor, partial curve, poor fit] | –
63 | Cc1ccnc(N2C(=O)c3cccc4c([N+](=O)[O-])ccc(c34)C2=O)c1 | – | inactive: -13.1%
64 | O=c1[nH]c2ccccc2nc1CCc1ccccc1 | – | inactive: 96.4%
65 | COc1ccc(OC)c(C2C(C(C)=O)=C(O)C(=O)N2c2ccc(F)cc2)c1 (centres undefined) | inconclusive: 0.0093 µM [inhibitor, full curve, poor fit] | –
66 | Cn1cccc1/C=C1\SC(=Nc2ccccc2)NC1=O | active: 7.38 µM | –
67 | Cc1ccc(N(C(=O)CNC(=O)c2ccco2)C(C(=O)NC2CCCCC2)c2cccnc2)cc1 (centres undefined) | inconclusive: 11.7 µM [inhibitor, partial curve] | –
68 | Cc1ccc(Cn2ccc(O)c(Cc3ccccc3)c2=O)cc1 | inconclusive: 3.7 µM [inhibitor, partial curve, poor fit] | –

Three successive entries out of the list so far:
Row | Compound | Potency | activity change, negative = inhibition
66 | Cn1cccc1/C=C1\SC(=Nc2ccccc2)NC1=O | active: 7.38 µM | –
67 | Cc1ccc(N(C(=O)CNC(=O)c2ccco2)C(C(=O)NC2CCCCC2)c2cccnc2)cc1 (centres undefined) | inconclusive: 11.7 µM [inhibitor, partial curve] | –
68 | Cc1ccc(Cn2ccc(O)c(Cc3ccccc3)c2=O)cc1 | inconclusive: 3.7 µM [inhibitor, partial curve, poor fit] | –
